PubChem BioAssay AID1159578 | Peter MacCallum Cancer Centre | 2015
In all, the deposit lists about 18,000 reagents; below is a part drawn at random. Of all reagents, about 1,030 (5.7%) are marked active. 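Inactive calls also include pools with fewer than 3300 nuclei, whose migration was not assessed.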 Raw values are not corrected between plates. Unmarked entries are inactive.

Purpose: 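Knock-downs that alter how fast lymphatic endothelial cells migrate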 (primary screen)
Cell system: human lymphatic endothelial cells
Knock-down reagent: siRNA pool against human genes, 40 nM
Duration: 48 h after transfection
Read-out: 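High-content imaging of dye-stained cells in a scratch assay measures filled wound area and nuclei per well; duplicate means given as ratio to mock and robust z-score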
Scale: migration robust z-score: higher = faster migration into the scratch; migration relative to mock: higher = more scratch area covered than mock; nuclei per well: higher = more cells in the well
Call rule: 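Migration changed when robust z exceeds 2 or falls below -2 and mean nuclei number is at least 3300; otherwise not called changed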
Meaning of the calls: active = migration changed; inactive = no migration change, or too few cells

The opening 4 entries, ahead of the listing:
| gene | migration robust z-score | migration class with cell-count check | migration relative to mock | nuclei per well, duplicate mean |
| --- | --- | --- | --- | --- |
| BRIP1 | -0.94 | migration z between -2 and 2; enough cells | 0.62 | 5644 |
| HBG2 | -2.18 (active) | migration z below -2; enough cells | 0.32 | 3771 |
| RFLNA | -0.75 | migration z between -2 and 2; enough cells | 0.69 | 6205 |
| MMADHC | -1.31 | migration z between -2 and 2; enough cells | 0.54 | 5496 |

Results, repeating the preview:
| gene | migration robust z-score | migration class with cell-count check | migration relative to mock | nuclei per well, duplicate mean |
| --- | --- | --- | --- | --- |
| BRIP1 | -0.94 | migration z between -2 and 2; enough cells | 0.62 | 5644 |
| HBG2 | -2.18 (active) | migration z below -2; enough cells | 0.32 | 3771 |
| RFLNA | -0.75 | migration z between -2 and 2; enough cells | 0.69 | 6205 |
| MMADHC | -1.31 | migration z between -2 and 2; enough cells | 0.54 | 5496 |
| ABCG8 | 0.7 | migration z between -2 and 2; enough cells | 0.94 | 5202 |
| FMO2 | -0.06 | migration z between -2 and 2; enough cells | 0.8 | 4260 |
| TAS1R1 | -0.68 | migration z between -2 and 2; enough cells | 0.71 | 5614 |
| PTPN14 | 1.09 | migration z between -2 and 2; enough cells | 1.02 | 6044 |
| CERS4 | -1.55 | migration z between -2 and 2; enough cells | 0.48 | 5115 |
| ZNF770 | -1.49 | migration z between -2 and 2; enough cells | 0.5 | 4994 |
| STARD13 | -0.73 | migration z between -2 and 2; enough cells | 0.7 | 6307 |
| TMEM267 | 0.03 | migration z between -2 and 2; enough cells | 0.89 | 6466 |
| C17orf78 | 1.9 | migration z between -2 and 2; enough cells | 1.38 | 7130 |
| TMEM89 | -1.26 | migration z between -2 and 2; enough cells | 0.56 | 5306 |
| FAM234B | -0.06 | migration z between -2 and 2; enough cells | 0.88 | 4439 |
| OPN1MW2 | -0.85 | migration z between -2 and 2; enough cells | 0.66 | 4577 |
| RAB35 | -1.99 | migration z between -2 and 2; enough cells | 0.42 | 3310 |
| KRT72 | 0.48 | migration z between -2 and 2; enough cells | 1.01 | 5899 |
| SLX1B | -0.19 | migration z between -2 and 2; enough cells | 0.84 | 5300 |
| CEP104 | 0.54 | migration z between -2 and 2; enough cells | 1.02 | 6534 |
| DHRS3 | -0.54 | migration z between -2 and 2; enough cells | 0.7 | 4240 |
| DGCR8 | 0.7 | migration z between -2 and 2; enough cells | 1.06 | 7834 |
| HEATR9 | 0.31 | migration z between -2 and 2; enough cells | 0.97 | 5758 |
| YWHAB | 0.64 | migration z between -2 and 2; enough cells | 1.05 | 5721 |
| GADD45G | 0.08 | migration z between -2 and 2; enough cells | 0.82 | 6869 |
| CCDC185 | -0.25 | migration z between -2 and 2; enough cells | 0.82 | 6810 |
| CAPN1 | 0.54 | migration z between -2 and 2; enough cells | 0.91 | 5940 |
| WTAP | -0.06 | migration z between -2 and 2; enough cells | 0.87 | 6277 |
| DES | -0.11 | migration z between -2 and 2; enough cells | 0.86 | 5452 |
| AKAP7 | -0.13 | migration z between -2 and 2; enough cells | 0.78 | 4608 |
| LTB4R | -1.74 | migration z between -2 and 2; enough cells | 0.47 | 5015 |
| PABPC1L2A | 0.46 | migration z between -2 and 2; enough cells | 1 | 5798 |
| TESC | -0.75 | migration z between -2 and 2; enough cells | 0.69 | 4650 |
| C1QL3 | 1.05 | migration z between -2 and 2; enough cells | 1.16 | 6214 |
| SCAF4 | 1.89 | migration z between -2 and 2; enough cells | 1.38 | 6194 |
| TBC1D1 | -0.45 | migration z between -2 and 2; enough cells | 0.76 | 5616 |
| PQBP1 | 0.99 | migration z between -2 and 2; enough cells | 1.15 | 5488 |
| YIF1A | 0.13 | migration z between -2 and 2; enough cells | 0.92 | 5927 |
| AKAP1 | -0.86 | migration z between -2 and 2; enough cells | 0.66 | 4884 |
